These are yes or no findings as the source states them, for the method shown. Binding seen in cells or lysates may run through a third protein. Here binding means that the protein was enriched with, or labelled near, the bait; the list need not be complete.
Assays:
[1] = molecular target: p25-GFP fusion protein (A. nidulans) (UniProt Q5B358); assay: affinity purification with mass spectrometry; p25-GFP held on anti-GFP MicroBeads (μMACS) from extract of the p25-GFP strain in the ∆C-HookA-S background; 50 mM Tris-HCl pH 8.0, 4 °C, 30 minutes; strain without GFP tag as negative control
[2] = molecular target: CapA-GFP fusion (A. nidulans) (UniProt Q5BBF4); assay: affinity purification with mass spectrometry; CapA-GFP held on anti-GFP MicroBeads (μMACS) from extract of the CapA-GFP strain in the ∆hookA background; 50 mM Tris-HCl pH 8.0, 4 °C, 30 minutes

Sequences of proteins named here, by UniProt entry; tags and fusion partners are left off. A change or cut given only in a name is not applied to a line headed by its entry.
UniProt Q5B358: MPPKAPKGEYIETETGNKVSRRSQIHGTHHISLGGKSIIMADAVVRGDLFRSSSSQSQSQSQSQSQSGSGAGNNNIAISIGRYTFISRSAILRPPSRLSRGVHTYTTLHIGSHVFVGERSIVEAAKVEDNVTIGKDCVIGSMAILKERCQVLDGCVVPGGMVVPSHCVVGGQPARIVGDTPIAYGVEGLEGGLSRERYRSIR
UniProt Q5BBF4: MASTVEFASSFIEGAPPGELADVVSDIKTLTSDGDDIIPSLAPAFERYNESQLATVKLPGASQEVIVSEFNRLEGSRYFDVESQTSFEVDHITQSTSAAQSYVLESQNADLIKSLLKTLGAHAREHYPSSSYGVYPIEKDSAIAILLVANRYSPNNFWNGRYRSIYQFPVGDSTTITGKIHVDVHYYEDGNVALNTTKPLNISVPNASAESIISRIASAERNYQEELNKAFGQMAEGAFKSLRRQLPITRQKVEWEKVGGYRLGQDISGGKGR
UniProt C8VS47: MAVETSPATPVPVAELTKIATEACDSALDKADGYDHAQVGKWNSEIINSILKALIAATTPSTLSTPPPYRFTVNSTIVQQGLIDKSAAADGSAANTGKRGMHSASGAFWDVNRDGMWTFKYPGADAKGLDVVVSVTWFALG
UniProt P45444: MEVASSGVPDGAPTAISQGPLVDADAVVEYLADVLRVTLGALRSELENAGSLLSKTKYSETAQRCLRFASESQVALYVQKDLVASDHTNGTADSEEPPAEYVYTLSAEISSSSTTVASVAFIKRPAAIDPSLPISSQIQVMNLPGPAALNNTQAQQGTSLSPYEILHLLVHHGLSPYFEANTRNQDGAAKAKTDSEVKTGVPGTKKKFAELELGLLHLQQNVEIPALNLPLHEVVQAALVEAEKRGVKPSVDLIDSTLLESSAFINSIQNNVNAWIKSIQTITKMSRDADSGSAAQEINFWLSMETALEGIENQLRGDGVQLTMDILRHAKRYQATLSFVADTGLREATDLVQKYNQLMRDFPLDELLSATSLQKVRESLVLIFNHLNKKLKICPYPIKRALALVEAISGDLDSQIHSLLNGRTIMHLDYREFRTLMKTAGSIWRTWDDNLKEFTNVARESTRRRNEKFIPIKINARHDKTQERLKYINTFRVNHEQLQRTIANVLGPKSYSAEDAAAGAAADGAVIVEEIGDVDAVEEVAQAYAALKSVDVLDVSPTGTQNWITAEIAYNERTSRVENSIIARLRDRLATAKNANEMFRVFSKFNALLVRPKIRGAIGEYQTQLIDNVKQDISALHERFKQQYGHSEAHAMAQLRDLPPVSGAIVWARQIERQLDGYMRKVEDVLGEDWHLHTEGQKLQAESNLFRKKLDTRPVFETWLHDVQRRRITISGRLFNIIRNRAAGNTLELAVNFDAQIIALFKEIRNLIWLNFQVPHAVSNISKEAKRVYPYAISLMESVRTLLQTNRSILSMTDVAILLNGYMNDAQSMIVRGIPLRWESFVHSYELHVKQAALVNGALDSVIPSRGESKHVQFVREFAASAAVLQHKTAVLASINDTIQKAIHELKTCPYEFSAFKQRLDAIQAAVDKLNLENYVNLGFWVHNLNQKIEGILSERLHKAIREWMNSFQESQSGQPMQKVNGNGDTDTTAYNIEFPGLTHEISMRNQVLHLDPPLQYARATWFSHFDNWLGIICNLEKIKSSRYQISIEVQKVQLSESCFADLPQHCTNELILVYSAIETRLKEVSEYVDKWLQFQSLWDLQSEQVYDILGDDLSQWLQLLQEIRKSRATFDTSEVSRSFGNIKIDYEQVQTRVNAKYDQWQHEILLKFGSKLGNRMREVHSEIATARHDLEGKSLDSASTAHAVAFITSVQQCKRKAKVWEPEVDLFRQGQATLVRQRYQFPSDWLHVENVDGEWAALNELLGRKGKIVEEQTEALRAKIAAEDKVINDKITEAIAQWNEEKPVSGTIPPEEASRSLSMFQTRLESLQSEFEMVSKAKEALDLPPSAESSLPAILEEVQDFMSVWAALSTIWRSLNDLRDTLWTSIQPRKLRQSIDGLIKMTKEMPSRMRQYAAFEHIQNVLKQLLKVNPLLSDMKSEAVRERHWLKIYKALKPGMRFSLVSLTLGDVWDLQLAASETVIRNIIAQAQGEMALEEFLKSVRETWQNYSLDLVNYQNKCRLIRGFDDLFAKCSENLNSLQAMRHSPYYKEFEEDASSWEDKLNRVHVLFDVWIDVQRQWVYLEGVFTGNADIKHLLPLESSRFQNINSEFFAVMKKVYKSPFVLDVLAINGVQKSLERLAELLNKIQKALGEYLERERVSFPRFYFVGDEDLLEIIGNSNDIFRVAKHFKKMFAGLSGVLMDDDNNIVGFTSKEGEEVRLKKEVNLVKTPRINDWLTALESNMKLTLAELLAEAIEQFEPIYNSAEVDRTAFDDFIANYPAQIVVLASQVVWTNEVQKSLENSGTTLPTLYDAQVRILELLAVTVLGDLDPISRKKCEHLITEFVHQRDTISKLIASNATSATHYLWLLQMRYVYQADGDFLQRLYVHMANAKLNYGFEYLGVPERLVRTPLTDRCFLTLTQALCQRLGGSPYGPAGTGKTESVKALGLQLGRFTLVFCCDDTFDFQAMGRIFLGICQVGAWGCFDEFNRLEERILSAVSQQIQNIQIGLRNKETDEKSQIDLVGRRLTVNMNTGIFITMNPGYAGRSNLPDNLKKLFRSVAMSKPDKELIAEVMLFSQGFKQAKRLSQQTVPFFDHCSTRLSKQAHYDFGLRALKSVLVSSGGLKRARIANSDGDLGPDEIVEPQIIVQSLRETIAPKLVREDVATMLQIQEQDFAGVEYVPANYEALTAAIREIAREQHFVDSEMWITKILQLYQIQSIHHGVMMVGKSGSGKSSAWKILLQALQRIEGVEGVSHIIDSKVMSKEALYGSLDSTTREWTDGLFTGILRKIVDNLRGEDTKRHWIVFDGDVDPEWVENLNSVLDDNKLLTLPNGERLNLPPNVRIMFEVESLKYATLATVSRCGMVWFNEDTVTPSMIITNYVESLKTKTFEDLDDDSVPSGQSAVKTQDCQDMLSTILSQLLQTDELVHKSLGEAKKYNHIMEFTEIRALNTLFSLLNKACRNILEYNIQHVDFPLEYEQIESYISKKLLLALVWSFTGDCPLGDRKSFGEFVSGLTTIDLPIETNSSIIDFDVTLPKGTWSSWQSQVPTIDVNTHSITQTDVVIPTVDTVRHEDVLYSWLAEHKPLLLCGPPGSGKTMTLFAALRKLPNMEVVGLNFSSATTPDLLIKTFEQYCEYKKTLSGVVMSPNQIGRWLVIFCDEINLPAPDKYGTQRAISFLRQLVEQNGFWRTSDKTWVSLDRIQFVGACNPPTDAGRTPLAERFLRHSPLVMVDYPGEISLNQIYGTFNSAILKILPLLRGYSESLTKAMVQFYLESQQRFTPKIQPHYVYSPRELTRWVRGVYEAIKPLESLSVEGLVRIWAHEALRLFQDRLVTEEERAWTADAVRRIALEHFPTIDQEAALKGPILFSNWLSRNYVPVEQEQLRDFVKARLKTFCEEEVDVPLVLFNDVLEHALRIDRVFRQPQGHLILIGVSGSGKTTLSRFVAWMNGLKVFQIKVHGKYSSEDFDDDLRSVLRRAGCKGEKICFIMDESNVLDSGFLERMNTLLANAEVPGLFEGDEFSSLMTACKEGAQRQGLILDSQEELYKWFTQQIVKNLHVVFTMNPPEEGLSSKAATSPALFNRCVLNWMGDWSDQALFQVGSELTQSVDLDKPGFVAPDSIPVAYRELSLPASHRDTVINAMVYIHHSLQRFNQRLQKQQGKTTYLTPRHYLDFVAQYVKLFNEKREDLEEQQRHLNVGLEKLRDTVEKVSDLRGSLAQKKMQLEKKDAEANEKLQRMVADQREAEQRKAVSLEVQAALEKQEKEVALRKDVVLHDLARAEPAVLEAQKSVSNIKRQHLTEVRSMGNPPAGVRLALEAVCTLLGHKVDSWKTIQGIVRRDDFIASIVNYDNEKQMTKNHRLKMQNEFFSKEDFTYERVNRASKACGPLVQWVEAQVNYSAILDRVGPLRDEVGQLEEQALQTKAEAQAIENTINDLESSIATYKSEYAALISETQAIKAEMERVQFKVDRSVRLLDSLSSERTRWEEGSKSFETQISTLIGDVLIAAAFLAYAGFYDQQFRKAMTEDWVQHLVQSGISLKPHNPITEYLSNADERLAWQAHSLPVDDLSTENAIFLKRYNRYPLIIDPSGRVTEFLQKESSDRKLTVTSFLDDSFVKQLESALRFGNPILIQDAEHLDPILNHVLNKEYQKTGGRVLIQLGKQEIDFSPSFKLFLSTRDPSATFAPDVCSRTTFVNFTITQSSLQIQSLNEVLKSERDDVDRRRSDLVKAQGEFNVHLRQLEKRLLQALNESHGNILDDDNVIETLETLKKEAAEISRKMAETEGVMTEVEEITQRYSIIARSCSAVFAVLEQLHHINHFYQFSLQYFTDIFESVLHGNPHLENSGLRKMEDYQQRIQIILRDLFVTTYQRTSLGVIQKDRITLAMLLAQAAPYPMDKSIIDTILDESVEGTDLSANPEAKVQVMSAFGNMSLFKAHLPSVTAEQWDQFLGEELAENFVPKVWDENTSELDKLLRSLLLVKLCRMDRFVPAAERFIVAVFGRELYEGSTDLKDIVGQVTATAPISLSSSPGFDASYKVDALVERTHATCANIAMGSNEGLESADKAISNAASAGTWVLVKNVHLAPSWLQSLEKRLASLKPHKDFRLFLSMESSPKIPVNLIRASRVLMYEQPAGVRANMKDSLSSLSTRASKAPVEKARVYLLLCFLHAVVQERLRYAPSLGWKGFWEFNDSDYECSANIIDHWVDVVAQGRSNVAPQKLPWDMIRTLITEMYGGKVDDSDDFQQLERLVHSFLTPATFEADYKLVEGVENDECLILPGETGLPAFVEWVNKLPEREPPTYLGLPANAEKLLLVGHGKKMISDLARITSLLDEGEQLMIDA
UniProt Q5BGP0: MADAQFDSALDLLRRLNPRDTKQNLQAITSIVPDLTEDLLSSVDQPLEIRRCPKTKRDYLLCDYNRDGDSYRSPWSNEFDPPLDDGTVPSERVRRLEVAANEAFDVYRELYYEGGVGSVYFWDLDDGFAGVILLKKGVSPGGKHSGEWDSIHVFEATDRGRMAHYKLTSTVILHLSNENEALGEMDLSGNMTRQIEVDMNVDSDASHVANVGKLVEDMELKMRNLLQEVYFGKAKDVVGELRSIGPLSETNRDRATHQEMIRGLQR

In the case of “capping protein alpha (CapA) (from UniProt Q5BBF4)”, the binding [1] is reported as “binds”.
Dynein TctexA (from UniProt C8VS47) was tested, and the binding [1] was “binds”.
In the case of “dynein heavy chain (HC) (from UniProt P45444 1-4345)”, the binding [2] is reported as “binds”.
In the case of “capping protein beta (CapB) (from UniProt Q5BGP0)”, the binding [2] is reported as “binds” and the binding [1] is reported as “binds”.
